Experimental data as given in article PMC12095580, “Wnt signalosome assembly is governed by conformational flexibility of Axin and by the AP2 clathrin adaptor” (Nature Communications, 2025).
These are yes or no findings as the source states them, for the method shown. In cells and extracts the contact can be indirect. Here binding means that the protein was enriched with, or labelled near, the bait; the list need not be complete.

The chains behind the UniProt entries cited, without tags or fusion partners. Residues count along the entry.
UniProt O75581, residues 20-1613: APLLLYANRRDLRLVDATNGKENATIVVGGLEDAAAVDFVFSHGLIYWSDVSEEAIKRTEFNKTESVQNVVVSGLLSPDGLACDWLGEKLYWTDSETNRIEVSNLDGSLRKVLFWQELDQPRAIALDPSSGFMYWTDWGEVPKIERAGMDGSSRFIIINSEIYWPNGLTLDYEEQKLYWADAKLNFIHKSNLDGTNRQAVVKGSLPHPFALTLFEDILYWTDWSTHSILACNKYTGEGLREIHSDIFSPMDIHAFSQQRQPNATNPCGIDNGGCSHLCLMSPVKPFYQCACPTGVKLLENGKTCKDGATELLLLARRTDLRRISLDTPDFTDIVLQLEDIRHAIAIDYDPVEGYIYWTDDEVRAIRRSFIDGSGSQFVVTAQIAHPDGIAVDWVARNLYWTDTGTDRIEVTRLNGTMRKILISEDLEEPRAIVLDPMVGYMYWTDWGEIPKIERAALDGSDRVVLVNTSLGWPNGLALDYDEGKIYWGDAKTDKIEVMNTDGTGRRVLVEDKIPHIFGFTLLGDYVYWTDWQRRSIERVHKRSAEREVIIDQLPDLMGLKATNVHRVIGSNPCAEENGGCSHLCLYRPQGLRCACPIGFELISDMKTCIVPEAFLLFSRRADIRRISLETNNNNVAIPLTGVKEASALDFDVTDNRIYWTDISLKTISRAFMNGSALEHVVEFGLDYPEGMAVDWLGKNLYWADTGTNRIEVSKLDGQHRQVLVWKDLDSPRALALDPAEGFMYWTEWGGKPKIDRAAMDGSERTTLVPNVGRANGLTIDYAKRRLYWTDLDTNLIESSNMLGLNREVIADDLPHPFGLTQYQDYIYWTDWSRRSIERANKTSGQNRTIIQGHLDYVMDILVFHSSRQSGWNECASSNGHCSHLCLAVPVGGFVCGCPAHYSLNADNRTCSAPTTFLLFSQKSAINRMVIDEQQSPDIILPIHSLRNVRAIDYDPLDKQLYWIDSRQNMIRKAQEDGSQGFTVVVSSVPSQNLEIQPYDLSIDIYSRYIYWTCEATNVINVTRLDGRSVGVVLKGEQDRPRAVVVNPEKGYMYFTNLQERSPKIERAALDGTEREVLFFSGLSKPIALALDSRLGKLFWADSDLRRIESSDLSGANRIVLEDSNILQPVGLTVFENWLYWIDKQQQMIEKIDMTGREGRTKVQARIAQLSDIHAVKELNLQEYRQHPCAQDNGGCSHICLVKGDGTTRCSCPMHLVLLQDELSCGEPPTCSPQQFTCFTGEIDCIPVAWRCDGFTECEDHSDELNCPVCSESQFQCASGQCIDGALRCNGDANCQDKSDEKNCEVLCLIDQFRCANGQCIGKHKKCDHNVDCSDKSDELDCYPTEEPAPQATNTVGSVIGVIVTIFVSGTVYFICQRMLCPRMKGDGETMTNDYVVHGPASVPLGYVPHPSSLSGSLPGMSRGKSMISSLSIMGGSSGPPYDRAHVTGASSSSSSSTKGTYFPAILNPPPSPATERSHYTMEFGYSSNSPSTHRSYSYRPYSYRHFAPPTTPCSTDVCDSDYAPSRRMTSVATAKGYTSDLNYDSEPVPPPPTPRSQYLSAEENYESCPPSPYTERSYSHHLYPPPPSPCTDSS
UniProt Q2M2I8: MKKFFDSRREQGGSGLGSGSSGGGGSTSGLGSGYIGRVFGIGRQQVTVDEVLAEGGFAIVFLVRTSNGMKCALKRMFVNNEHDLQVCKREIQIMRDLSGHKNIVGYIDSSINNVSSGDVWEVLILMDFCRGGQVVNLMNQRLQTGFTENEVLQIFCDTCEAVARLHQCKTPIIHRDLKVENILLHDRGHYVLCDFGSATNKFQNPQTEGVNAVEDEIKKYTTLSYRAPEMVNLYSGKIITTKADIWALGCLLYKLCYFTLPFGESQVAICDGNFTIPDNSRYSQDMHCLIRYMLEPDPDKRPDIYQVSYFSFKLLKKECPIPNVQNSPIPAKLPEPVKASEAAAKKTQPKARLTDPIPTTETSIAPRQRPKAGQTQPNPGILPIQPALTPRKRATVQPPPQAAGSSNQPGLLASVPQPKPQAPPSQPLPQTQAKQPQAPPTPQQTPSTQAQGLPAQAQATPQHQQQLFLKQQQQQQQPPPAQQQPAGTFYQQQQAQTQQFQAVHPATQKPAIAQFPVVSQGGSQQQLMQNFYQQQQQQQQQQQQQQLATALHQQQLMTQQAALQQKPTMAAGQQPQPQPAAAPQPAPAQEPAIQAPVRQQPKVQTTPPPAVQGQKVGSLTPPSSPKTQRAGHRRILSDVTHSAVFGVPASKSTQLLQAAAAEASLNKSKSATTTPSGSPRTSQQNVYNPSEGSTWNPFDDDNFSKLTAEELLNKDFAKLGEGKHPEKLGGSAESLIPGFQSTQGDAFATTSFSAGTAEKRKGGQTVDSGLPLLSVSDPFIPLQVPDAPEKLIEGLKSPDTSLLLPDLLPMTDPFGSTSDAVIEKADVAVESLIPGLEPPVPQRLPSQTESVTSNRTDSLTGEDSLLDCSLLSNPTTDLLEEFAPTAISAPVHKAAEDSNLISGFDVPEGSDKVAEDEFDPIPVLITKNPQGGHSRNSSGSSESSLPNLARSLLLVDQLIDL
UniProt O94921: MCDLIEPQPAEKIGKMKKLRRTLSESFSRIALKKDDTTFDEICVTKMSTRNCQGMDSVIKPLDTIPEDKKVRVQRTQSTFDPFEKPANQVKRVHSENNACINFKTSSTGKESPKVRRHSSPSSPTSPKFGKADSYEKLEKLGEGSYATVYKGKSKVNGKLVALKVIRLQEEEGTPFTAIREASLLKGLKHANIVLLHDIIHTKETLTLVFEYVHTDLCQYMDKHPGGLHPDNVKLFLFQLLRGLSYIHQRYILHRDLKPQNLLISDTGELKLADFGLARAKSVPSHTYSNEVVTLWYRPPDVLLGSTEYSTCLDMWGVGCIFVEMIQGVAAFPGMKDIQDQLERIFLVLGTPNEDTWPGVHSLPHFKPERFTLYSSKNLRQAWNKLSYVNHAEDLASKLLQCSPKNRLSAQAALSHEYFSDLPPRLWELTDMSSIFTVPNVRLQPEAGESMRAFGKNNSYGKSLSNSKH
UniProt Q9Y6M4: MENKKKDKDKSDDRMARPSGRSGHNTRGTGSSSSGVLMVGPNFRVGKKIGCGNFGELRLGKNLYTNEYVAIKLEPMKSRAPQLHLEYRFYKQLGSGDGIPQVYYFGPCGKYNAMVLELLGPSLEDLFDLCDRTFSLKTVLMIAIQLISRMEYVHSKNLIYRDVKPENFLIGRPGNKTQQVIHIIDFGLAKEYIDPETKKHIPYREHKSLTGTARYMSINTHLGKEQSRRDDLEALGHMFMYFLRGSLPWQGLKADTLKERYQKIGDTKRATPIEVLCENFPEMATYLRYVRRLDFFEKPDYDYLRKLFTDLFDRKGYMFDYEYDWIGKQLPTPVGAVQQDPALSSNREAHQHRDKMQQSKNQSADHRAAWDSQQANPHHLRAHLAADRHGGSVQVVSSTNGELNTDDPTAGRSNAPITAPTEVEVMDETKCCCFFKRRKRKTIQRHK
UniProt P63010: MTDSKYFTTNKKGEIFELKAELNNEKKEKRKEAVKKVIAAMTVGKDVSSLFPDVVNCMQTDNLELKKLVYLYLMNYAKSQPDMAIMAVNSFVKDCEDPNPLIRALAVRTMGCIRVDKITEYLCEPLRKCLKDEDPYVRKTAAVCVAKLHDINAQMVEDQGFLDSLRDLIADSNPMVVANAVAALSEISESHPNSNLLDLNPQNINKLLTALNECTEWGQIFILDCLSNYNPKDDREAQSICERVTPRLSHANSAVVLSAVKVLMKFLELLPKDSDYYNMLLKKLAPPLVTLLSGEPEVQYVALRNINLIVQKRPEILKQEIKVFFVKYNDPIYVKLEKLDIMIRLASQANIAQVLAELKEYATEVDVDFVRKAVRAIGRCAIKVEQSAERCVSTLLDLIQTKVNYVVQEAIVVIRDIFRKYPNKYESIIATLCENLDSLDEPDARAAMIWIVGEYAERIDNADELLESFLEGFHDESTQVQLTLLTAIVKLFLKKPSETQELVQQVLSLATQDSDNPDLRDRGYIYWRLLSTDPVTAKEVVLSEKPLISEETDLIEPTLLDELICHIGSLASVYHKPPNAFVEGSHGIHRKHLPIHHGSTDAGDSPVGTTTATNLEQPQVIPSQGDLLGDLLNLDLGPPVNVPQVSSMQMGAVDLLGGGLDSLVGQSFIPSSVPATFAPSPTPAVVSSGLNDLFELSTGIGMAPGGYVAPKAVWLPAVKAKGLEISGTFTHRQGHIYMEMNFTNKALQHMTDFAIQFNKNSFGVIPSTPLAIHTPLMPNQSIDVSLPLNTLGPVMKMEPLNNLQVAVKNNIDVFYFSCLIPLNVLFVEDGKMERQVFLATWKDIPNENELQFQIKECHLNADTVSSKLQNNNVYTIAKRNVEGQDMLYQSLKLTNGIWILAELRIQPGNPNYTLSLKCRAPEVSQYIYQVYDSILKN
UniProt Q96CW1: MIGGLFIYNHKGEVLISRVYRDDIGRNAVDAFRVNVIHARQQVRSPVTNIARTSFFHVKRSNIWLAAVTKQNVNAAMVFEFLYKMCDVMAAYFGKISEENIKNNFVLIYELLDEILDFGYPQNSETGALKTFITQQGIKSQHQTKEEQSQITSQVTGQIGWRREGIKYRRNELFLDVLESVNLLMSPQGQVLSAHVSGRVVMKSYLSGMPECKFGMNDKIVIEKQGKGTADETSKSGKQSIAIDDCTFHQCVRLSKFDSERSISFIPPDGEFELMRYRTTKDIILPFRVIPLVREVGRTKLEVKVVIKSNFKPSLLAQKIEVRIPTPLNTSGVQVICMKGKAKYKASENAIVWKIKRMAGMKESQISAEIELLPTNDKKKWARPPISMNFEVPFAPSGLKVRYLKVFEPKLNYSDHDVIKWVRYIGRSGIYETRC
UniProt O15169: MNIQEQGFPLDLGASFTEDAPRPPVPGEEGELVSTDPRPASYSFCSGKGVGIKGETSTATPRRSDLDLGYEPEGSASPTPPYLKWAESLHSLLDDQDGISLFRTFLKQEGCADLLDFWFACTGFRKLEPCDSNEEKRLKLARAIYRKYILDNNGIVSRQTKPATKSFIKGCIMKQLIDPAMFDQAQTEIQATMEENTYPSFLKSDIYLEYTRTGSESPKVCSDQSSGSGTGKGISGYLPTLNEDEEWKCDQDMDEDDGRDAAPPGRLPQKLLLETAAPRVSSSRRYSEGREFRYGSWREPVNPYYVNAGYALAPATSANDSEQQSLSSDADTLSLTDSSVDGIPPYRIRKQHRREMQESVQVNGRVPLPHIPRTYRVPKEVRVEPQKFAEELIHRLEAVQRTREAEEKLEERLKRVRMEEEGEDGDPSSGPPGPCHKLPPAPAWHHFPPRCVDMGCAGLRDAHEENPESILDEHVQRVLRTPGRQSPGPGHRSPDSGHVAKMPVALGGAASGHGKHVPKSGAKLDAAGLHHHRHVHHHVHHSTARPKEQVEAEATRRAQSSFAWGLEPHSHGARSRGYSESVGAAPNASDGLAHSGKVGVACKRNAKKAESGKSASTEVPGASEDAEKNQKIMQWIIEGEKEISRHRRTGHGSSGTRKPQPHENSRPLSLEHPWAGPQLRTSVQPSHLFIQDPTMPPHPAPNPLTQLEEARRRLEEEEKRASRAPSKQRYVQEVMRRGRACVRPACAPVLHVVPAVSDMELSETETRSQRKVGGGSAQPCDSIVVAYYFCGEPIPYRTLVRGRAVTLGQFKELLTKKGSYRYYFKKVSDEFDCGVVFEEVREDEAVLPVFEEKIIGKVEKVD
UniProt P49840: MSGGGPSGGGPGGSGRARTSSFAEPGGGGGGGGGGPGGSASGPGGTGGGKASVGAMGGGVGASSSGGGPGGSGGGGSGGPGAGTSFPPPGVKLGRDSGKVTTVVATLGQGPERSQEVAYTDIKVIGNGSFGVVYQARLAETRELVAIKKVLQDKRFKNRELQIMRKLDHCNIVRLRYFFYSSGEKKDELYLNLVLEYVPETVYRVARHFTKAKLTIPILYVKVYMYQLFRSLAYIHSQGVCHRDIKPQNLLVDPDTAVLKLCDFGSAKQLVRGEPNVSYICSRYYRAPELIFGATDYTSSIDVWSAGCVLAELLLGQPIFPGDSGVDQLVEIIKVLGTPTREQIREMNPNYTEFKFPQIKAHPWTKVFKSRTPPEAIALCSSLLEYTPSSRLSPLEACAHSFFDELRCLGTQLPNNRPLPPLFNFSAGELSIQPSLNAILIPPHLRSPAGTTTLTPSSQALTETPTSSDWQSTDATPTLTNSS

B1: Gadkin (protein, UniProt Q63HQ0 1-302)
chain: MGNCCWTQCFGLLRKEAGRLQRVGGGGGSKYFRTCSRGEHLTIEFENLVESDEGESPGSSHRPLTEEEIVDLRERHYDSIAEKQKDLDKKIQKELALQEEKLRLEEEALYAAQREAARAAKQRKLLEQERQRIVQQYHPSNNGEYQSSGPEDDFESCLRNMKSQYEVFRSSRLSSDATVLTPNTESSCDLMTKTKSTSGNDDSTSLDLEWEDEEGMNRMLPMRERSKTEEDILRAALKYSNKKTGSNPTSASDDSNGLEWENDFVSAEMDDNGNSEYSGFVNPVLELSDSGIRHSDTDQQTR
B2: threonine tyrosine kinase (TTK, aka MPS1) (enzyme, UniProt P33981 1-857)
chain: MESEDLSGRELTIDSIMNKVRDIKNKFKNEDLTDELSLNKISADTTDNSGTVNQIMMMANNPEDWLSLLLKLEKNSVPLSDALLNKLIGRYSQAIEALPPDKYGQNESFARIQVRFAELKAIQEPDDARDYFQMARANCKKFAFVHISFAQFELSQGNVKKSKQLLQKAVERGAVPLEMLEIALRNLNLQKKQLLSEEEKKNLSASTVLTAQESFSGSLGHLQNRNNSCDSRGQTTKARFLYGENMPPQDAEIGYRNSLRQTNKTKQSCPFGRVPVNLLNSPDCDVKTDDSVVPCFMKRQTSRSECRDLVVPGSKPSGNDSCELRNLKSVQNSHFKEPLVSDEKSSELIITDSITLKNKTESSLLAKLEETKEYQEPEVPESNQKQWQSKRKSECINQNPAASSNHWQIPELARKVNTEQKHTTFEQPVFSVSKQSPPISTSKWFDPKSICKTPSSNTLDDYMSCFRTPVVKNDFPPACQLSTPYGQPACFQQQQHQILATPLQNLQVLASSSANECISVKGRIYSILKQIGSGGSSKVFQVLNEKKQIYAIKYVNLEEADNQTLDSYRNEIAYLNKLQQHSDKIIRLYDYEITDQYIYMVMECGNIDLNSWLKKKKSIDPWERKSYWKNMLEAVHTIHQHGIVHSDLKPANFLIVDGMLKLIDFGIANQMQPDTTSVVKDSQVGTVNYMPPEAIKDMSSSRENGKSKSKISPKSDVWSLGCILYYMTYGKTPFQQIINQISKLHAIIDPNHEIEFPDIPEKDLQDVLKCCLKRDPKQRISIPELLAHPYVQIQTHPVNQMAKGTTEEMKYVLGQLVGLNSPNSILKAAKTLYEHYSGGESHNSSSSKTFEKKRGKK
B3: large ε subunit of AP4 (protein, UniProt Q9UPM8 1-1137)
chain: MSDIVEKTLTALPGLFLQNQPGGGPAAAKASFSSRLGSLVRGITALTSKHEEEKLIQQELSSLKATVSAPTTTLKMMKECMVRLIYCEMLGYDASFGYIHAIKLAQQGNLLEKRVGYLAVSLFLHESHELLLLLVNTVVKDLQSTNLVEVCMALTVVSQIFPCEMIPAVLPLIEDKLQHSKEIVRRKAVLALYKFHLIAPNQVQHIHIKFRKALCDRDVGVMAASLHIYLRMIKENSSGYKDLTGSFVTILKQVVGGKLPVEFNYHSVPAPWLQIQLLRILGLLGKDDQRTSELMYDVLDESLRRAELNHNVTYAILFECVHTVYSIYPKSELLEKAAKCIGKFVLSPKINLKYLGLKALTYVIQQDPTLALQHQMTIIECLDHPDPIIKRETLELLYRITNAQNITVIVQKMLEYLHQSKEEYVIVNLVGKIAELAEKYAPDNAWFIQTMNAVFSVGGDVMHPDIPNNFLRLLAEGFDDETEDQQLRLYAVQSYLTLLDMENVFYPQRFLQVMSWVLGEYSYLLDKETPEEVIAKLYKLLMNDSVSSETKAWLIAAVTKLTSQAHSSNTVERLIHEFTISLDTCMRQHAFELKHLHENVELMKSLLPVDRSCEDLVVDASLSFLDGFVAEGLSQGAAPYKPPHQRQEEKLSQEKVLNFEPYGLSFSSSGFTGRQSPAGISLGSDVSGNSAETGLKETNSLKLEGIKKLWGKEGYLPKKESKTGDESGALPVPQESIMENVDQAITKKDQSQVLTQSKEEKEKQLLASSLFVGLGSESTINLLGKADTVSHKFRRKSKVKEAKSGETTSTHNMTCSSFSSLSNVAYEDDYYSNTLHDTGDKELKKFSLTSELLDSESLTELPLVEKFSYCSLSTPSLFANNNMEIFHPPQSTAASVAKESSLASSFLEETTEYIHSNAMEVCNNETISVSSYKIWKDDCLLMVWSVTNKSGLELKSADLEIFPAENFKVTEQPGCCLPVMEAESTKSFQYSVQIEKPFTEGNLTGFISYHMMDTHSAQLEFSVNLSLLDFIRPLKISSDDFGKLWLSFANDVKQNVKMSESQAALPSALKTLQQKLRLHIIEIIGNEGLLACQLLPSIPCLLHCRVHADVLALWFRSSCSTLPDYLLYQCQKVMEGS
B4: DDX18 (protein, UniProt Q9NVP1 1-670)
chain: MSHLPMKLLRKKIEKRNLKLRQRNLKFQGASNLTLSETQNGDVSEETMGSRKVKKSKQKPMNVGLSETQNGGMSQEAVGNIKVTKSPQKSTVLTNGEAAMQSSNSESKKKKKKKRKMVNDAEPDTKKAKTENKGKSEEESAETTKETENNVEKPDNDEDESEVPSLPLGLTGAFEDTSFASLCNLVNENTLKAIKEMGFTNMTEIQHKSIRPLLEGRDLLAAAKTGSGKTLAFLIPAVELIVKLRFMPRNGTGVLILSPTRELAMQTFGVLKELMTHHVHTYGLIMGGSNRSAEAQKLGNGINIIVATPGRLLDHMQNTPGFMYKNLQCLVIDEADRILDVGFEEELKQIIKLLPTRRQTMLFSATQTRKVEDLARISLKKEPLYVGVDDDKANATVDGLEQGYVVCPSEKRFLLLFTFLKKNRKKKLMVFFSSCMSVKYHYELLNYIDLPVLAIHGKQKQNKRTTTFFQFCNADSGTLLCTDVAARGLDIPEVDWIVQYDPPDDPKEYIHRVGRTARGLNGRGHALLILRPEELGFLRYLKQSKVPLSEFDFSWSKISDIQSQLEKLIEKNYFLHKSAQEAYKSYIRAYDSHSLKQIFNVNNLNLPQVALSFGFKVPPFVDLNVNSNEGKQKKRGGGGGFGYQKTKKVEKSKIFKHISKKSSDSRQFSH

What follows are molecules tested against LRP6-TurboID (UniProt O75581) (assay: proximity labelling; TurboID: tetracycline-induced LRP6-TurboID baits in FlpIn T-REx HEK293 cells, biotin for 2 h with or without Wnt3a, streptavidin pull-down, LC-MS/MS).

Row | binding | Molecule
1 | binds | AAK1 (from UniProt Q2M2I8 1-961) (enzyme)
2 | binds | CDK14 (from UniProt O94921 1-469) (enzyme)
3 | binds | CK1γ3 (from UniProt Q9Y6M4 1-447) (enzyme)
4 | binds | DAAM1 (from UniProt Q9Y4D1 1-1078)
5 | binds | PKN3 (from UniProt Q6P5Z2 1-889) (enzyme)
6 | binds | large β subunit of AP2 (from UniProt P63010 1-937)
7 | binds | mitogen-activated kinase 4 (MLK4) (from UniProt Q5TCX8 1-1036) (enzyme)
8 | binds | protein kinase N1 (PKN1) (from UniProt Q16512 1-942) (enzyme)
9 | binds | μ subunit of AP2 (endogenous) (from UniProt Q96CW1 1-435)
10 | binds | B1
11 | binds | B2
12 | binds | B3
13 | binds | B4

These molecules were tested against LRP6-BirA* (UniProt O75581) (assay: proximity labelling; BioID: tetracycline-induced LRP6-BirA* baits in FlpIn T-REx HEK293 cells, biotin for 12 h in Wnt3a-conditioned medium, streptavidin pull-down, LC-MS/MS).

Row | binding | Molecule
14 | binds | Axin1 (endogenous) (from UniProt O15169 1-862)
15 | binds | GSK3α (endogenous) (from UniProt P49840 1-483) (enzyme)
16 | binds | B2
